Assay results from publication PMC5021139 (Journal of Neuroendocrinology, 2016).
These are yes or no findings as the source states them, for the method shown. Binding seen in cells or lysates may run through a third protein.

By UniProt entry, the sequences of proteins in these tests, tags left out.
UniProt P30559: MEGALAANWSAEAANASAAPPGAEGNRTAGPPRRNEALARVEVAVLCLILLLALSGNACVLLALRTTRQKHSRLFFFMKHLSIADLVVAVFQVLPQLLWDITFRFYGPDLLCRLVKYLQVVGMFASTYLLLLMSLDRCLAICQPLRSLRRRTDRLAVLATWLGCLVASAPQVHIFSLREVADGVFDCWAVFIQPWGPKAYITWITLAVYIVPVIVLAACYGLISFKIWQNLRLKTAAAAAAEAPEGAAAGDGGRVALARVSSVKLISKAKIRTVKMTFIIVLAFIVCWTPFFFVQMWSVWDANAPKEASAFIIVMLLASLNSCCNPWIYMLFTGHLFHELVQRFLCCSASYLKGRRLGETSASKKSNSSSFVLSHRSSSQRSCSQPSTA

Target: human oxytocin receptor fused to Renilla luciferase (hOXTR‐Rluc) (human) (UniProt P30559)
Assay: condition: only with carbetocin (10 μM) as the agonist in place of oxytocin; FRET or BRET; kinetic BRET1 in HEK293 cells co-transfected with hOXTR-Rluc (donor) and β-arrestin1- or β-arrestin2-Venus (acceptor); cells in PBS with 0.1% glucose at room temperature; coelenterazine h added 8 min before carbetocin (10 μM); read in real time for 5 min

binding: no binding
B1: β‐arrestin1‐Venus (natural protein, UniProt P49407 1-418, looked up)
chain: MGDKGTRVFKKASPNGKLTVYLGKRDFVDHIDLVDPVDGVVLVDPEYLKERRVYVTLTCAFRYGREDLDVLGLTFRKDLFVANVQSFPPAPEDKKPLTRLQERLIKKLGEHAYPFTFEIPPNLPCSVTLQPGPEDTGKACGVDYEVKAFCAENLEEKIHKRNSVRLVIRKVQYAPERPGPQPTAETTRQFLMSDKPLHLEASLDKEIYYHGEPISVNVHVTNNTNKTVKKIKISVRQYADICLFNTAQYKCPVAMEEADDTVAPSSTFCKVYTLTPFLANNREKRGLALDGKLKHEDTNLASSTLLREGANREILGIIVSYKVKVKLVVSRGGLLGDLASSDVAVELPFTLMHPKPKEEPPHREVPENETPVDTNLIELDTNDDDIVFEDFARQRLKGMKDDKEEEEDGTGSPQLNNR
notes: β-arrestin1; Venus (yellow variant of GFP) fused to its C-terminus; vector provided by Professor M. Locati; source: HEK293, transfected (PEI), in living cells; not shown: Venus, C-terminal, kept
